PubChem BioAssay AID743454 – Peter MacCallum Cancer Centre, 2014
Screen: 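Genes whose loss kills vorinostat-resistant colon cancer cells under vorinostat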 (primary screen). Cell system: human HCT116-VR colon cancer cells, selected for vorinostat resistance. Reagent: siRNA pool against human genes, 40 nM siRNA pool. Time to read-out: vorinostat for 24 h, read-out about 72 h after transfection. Treatment: vorinostat at 2.5 µM final. Read-out: 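Cell viability by CellTiter-Fluor and caspase 3/7 activity by luminescence, each scaled to mock wells per plate, duplicates averaged, then robust z-scored over all plates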. Reading the numbers: viability robust z-score: higher = more viable cells than screen typical; caspase robust z-score: higher = more caspase 3/7 activity than screen typical. Hit rule: 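Hits are knock-downs in viability class RV1/RV2 or caspase class CA1/CA2, excluding ones that killed cells in the no-drug cell-count arm; hits then retested with single siRNAs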.
Here is an unselected part of about 18,000 reagents tested. Over the whole deposit, 450 (2.5%) got an active call. 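Single biological run; no consistent viability z cut-off exists, so the class columns, not z-scores, define the calls.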 A number with no mark means an inactive call. Reagents against one gene are numbered here. Reagent sequences are not shown.

| gene | pool no. | viability hit class | caspase hit class | viability robust z-score | caspase robust z-score |
| --- | --- | --- | --- | --- | --- |
| WNT6 (Wnt family member 6) | 1 | no change | no change | -0.04 | 0.7 |
| CACNB4 (calcium voltage-gated channel auxiliary subunit beta 4) | 1 | no change | no change | -1.25 | 1.9 |
| MMP28 (matrix metallopeptidase 28) | 1 | no change | no change | 0.18 | -0.08 |
| FOS (Fos proto-oncogene, AP-1 transcription factor subunit) | 1 | no change | no change | -1.75 | 1.86 |
| OR8D4 (olfactory receptor family 8 subfamily D member 4) | 1 | no change | no change | -0.96 | 2.51 |
| PTGFR (prostaglandin F receptor) | 1 | no change | no change | -0.91 | 0.94 |
| CCDC144BP (coiled-coil domain containing 144B, pseudogene) | 1 | no change | no change | -0.02 | -1.08 |
| NCKAP1L (NCK associated protein 1 like) | 1 | no change | no change | 0.09 | -1 |
| JAK2 (Janus kinase 2) | 1 | no change | no change | -3.7 | 1.34 |
| PEX39 (peroxisomal biogenesis factor 39) | 1 | no change | no change | 1.86 | -0.65 |
| MRPS6 (mitochondrial ribosomal protein S6) | 1 | no change | no change | 0.11 | -0.92 |
| PRXL2B (peroxiredoxin like 2B) | 1 | no change | no change | -0.82 | 0.36 |
| PCDHGA8 (protocadherin gamma subfamily A, 8) | 1 | no change | no change | 1.38 | -0.39 |
| BOLA2 (bolA family member 2) | 1 | no change | no change | -0.07 | -1.3 |
| LY86 (lymphocyte antigen 86) | 1 | no change | no change | 1 | 0.06 |
| MAGOH (mago homolog, exon junction complex subunit) | 1 | RV2 (reduced viability) (active) | no change | -3.63 | 2.62 |
| ARMC6 (armadillo repeat containing 6) | 1 | no change | no change | 1.07 | 2.51 |
| DRC12 (dynein regulatory complex subunit 12 homolog) | 1 | no change | no change | 0.24 | -0.35 |
| NRXN1 (neurexin 1) | 1 | no change | no change | 0.48 | -0.27 |
| SEPSECS | 1 | no change | no change | 0.27 | -0.75 |
| CCNT1 (cyclin T1) | 1 | no change | no change | -0.02 | -0.23 |
| CYB5A (cytochrome b5 type A) | 1 | no change | no change | -0.93 | -0.38 |
| CLMP (CXADR like cell adhesion molecule) | 1 | no change | no change | 1.24 | -0.06 |
| KISS1 (KiSS-1 metastasis suppressor) | 1 | no change | no change | -2.6 | 1.68 |
| LPCAT2 (lysophosphatidylcholine acyltransferase 2) | 1 | no change | no change | 1.09 | -1.03 |
| CLIC4 (CLIC family member 4) | 1 | no change | no change | 0.26 | 0.09 |
| GJA3 (gap junction protein alpha 3) | 1 | no change | no change | -1.72 | 0.82 |
| TAMM41 | 1 | no change | no change | -0.4 | -0.61 |
| SLC25A19 | 1 | no change | no change | 1.41 | 0.58 |
| CLIC3 (CLIC family member 3) | 1 | no change | no change | -0.54 | -0.5 |
| ZNF433 (zinc finger protein 433) | 1 | no change | no change | 1.14 | -0.43 |
| HDAC5 (histone deacetylase 5) | 1 | no change | no change | -0.38 | 4.77 |
| ANXA2 (annexin A2) | 1 | no change | no change | 0.31 | 0.37 |
| PNPLA3 | 1 | no change | no change | -0.07 | -0.91 |
| ACRBP (acrosin binding protein) | 1 | no change | no change | -0.96 | 4.36 |
| JMJD4 (jumonji domain containing 4) | 1 | no change | no change | -0.16 | -1.01 |
| SLC44A5 | 1 | no change | no change | 0.66 | -0.12 |
| SLC3A1 | 1 | no change | no change | 1.02 | -0.86 |
| C1orf122 (chromosome 1 open reading frame 122) | 1 | no change | no change | 1.01 | -0.7 |
| PCDHAC2 (protocadherin alpha subfamily C, 2) | 1 | no change | no change | -1.38 | 0.11 |
| LACTB2 (lactamase beta 2) | 1 | no change | no change | 0.94 | -0.84 |
| GRWD1 (glutamate rich WD repeat containing 1) | 1 | no change | no change | -0.44 | 1.01 |
| NPLOC4 (NPL4 homolog, ubiquitin recognition factor) | 1 | no change | no change | 0.57 | -0.1 |
| NLK (nemo like kinase) | 1 | no change | no change | 0.86 | -0.52 |
| ALOX5AP (arachidonate 5-lipoxygenase activating protein) | 1 | no change | no change | 0.46 | 0.34 |
| PALM2AKAP2 (PALM2 and AKAP2 fusion) | 1 | no change | no change | 0.42 | 0.73 |
| PALM2AKAP2 (PALM2 and AKAP2 fusion) | 2 | no change | no change | 0.97 | 3.85 |
| PALM2AKAP2 (PALM2 and AKAP2 fusion) | 3 | no change | no change | 0.76 | 0.64 |
| FYB1 (FYN binding protein 1) | 1 | no change | no change | -1.04 | 0.52 |
| NDUFAB1 (NADH:ubiquinone oxidoreductase subunit AB1) | 1 | no change | no change | -0.71 | 0.36 |
| PAQR4 (progestin and adipoQ receptor family member 4) | 1 | no change | no change | 0.6 | 1.8 |
| RPL3 (ribosomal protein L3) | 1 | no change | no change | -5.46 | -0.75 |
| OR6C74 (olfactory receptor family 6 subfamily C member 74) | 1 | no change | no change | 1 | -1.08 |
| MED6 (mediator complex subunit 6) | 1 | no change | no change | -1.47 | 2.23 |
| TOB2 (transducer of ERBB2, 2) | 1 | no change | no change | 0.16 | 1.58 |
| STK3 (serine/threonine kinase 3) | 1 | no change | no change | -0.54 | 0.36 |
| CKAP2L (cytoskeleton associated protein 2L) | 1 | no change | no change | 0.44 | 0.64 |

Active calls, among the entries above:
| gene | pool no. | viability hit class | caspase hit class | viability robust z-score | caspase robust z-score |
| --- | --- | --- | --- | --- | --- |
| MAGOH (mago homolog, exon junction complex subunit) | 1 | RV2 (reduced viability) (active) | no change | -3.63 | 2.62 |
